{
  "source": "patent US7413853B2",
  "about": "“Modulation of metabolism of steroids and xenobiotics” (The Salk Institute for Biological Studies, priority 2001, dated 2008)",
  "test_system": "UGT",
  "assay": "Induction of UGT expression in vivo in SXR transgenic mice",
  "parameters": "species or system mouse",
  "note": "At least one compound was matched to its structure with a doubt left.",
  "data": [
    {"smiles": "CO[C@H]1/C=C/O[C@@]2(C)Oc3c(C)c(O)c4c(O)c(c(/C=N/N5CCN(C)CC5)c(O)c4c3C2=O)NC(=O)/C(C)=C\\C=C\\[C@H](C)[C@H](O)[C@@H](C)[C@@H](O)[C@@H](C)[C@H](OC(C)=O)[C@@H]1C", "note": "[RIF, rifampicin]", "values": [
      {"measurement": "activation of UGT in vivo", "setting": "SXR transgenic mice", "result": "activation"},
      {"measurement": "activation of UGT in vivo", "setting": "wild-type mice", "result": "not"}
    ]}
  ]
}
